These are yes or no findings as the source states them, for the method shown. Binding seen in cells or lysates may run through a third protein. Some entries that bind do so weakly or less than the wild type.
Molecular target: β-arrestin 2 (not stated (EPCs from human umbilical cord blood or mouse bone marrow)) (UniProt P32121)
Test: co-IP; Pierce Co-Immunoprecipitation kit; Arrb2 antibody (25 μg, ab206972) immobilised on resin; 500 μg EPC protein, overnight at 4°C; eluate examined by Western blotting for ERK1/2 and Akt

Amino acid sequences for entries named in this document (tags omitted).
UniProt P32121: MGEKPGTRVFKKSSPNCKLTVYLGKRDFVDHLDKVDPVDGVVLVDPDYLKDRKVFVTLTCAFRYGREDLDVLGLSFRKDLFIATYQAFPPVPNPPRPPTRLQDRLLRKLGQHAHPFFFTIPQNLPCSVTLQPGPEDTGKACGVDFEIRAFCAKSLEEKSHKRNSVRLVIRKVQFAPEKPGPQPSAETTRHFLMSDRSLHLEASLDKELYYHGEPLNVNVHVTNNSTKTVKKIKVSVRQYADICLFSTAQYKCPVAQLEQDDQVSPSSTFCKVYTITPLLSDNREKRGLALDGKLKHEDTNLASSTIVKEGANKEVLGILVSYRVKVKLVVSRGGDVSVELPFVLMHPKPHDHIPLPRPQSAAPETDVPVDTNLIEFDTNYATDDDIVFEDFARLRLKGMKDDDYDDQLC
UniProt P28482: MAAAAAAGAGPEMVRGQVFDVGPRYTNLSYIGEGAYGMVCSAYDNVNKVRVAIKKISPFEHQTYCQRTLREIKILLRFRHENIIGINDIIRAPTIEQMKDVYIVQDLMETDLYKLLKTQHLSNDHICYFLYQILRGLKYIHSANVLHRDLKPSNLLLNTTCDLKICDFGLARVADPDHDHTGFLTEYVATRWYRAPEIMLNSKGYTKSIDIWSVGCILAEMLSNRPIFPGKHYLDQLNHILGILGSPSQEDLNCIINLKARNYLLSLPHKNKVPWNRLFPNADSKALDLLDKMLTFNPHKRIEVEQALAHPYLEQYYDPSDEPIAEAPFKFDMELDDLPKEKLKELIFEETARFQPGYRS
UniProt P27361: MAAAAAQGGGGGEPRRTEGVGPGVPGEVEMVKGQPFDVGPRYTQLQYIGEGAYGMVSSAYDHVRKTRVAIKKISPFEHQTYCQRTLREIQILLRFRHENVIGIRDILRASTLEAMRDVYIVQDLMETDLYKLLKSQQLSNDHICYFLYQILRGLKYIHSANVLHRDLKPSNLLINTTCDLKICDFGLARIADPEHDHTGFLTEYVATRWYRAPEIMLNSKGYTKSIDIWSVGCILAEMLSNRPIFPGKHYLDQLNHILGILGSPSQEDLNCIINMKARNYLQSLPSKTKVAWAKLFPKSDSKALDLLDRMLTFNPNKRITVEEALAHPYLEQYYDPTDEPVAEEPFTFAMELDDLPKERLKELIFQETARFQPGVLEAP

| binding | Substance |
| --- | --- |
| binds | extracellular signal-regulated kinase 2 (from UniProt P28482 1-360) (enzyme) |
| binds | extracellular signal-regulated kinase 1 (from UniProt P27361 1-379) (enzyme) |
